Measurements taken from patent publication US20190263898A1.
No constants are given. Whether binding was seen depends on the method and setting. Some results given as binding are weak or reduced against the parent protein; the word gives no strength. For some of these results: Sequences can lack the tags named with a protein.

T1: truncated Tau protein in fiber form (polymerized R3 peptide)
T1 sequence (peptide): VQIVYKPVDLSKVTSKCG


Experiments:
[1] = biological target: T1, truncated Tau protein in fiber form (polymerized R3 peptide); experiment: ELISA, unlabeled 2C5 titrated on polymers of the R3 sequence of Tau (R3 Fibers), PBS with 1% BSA, pH 7.5; PBS wells as control
[2] = biological target: T1, truncated Tau protein in fiber form (polymerized R3 peptide); experiment: ELISA, 2C5 titrated on polymerized R3 peptide (Mimes)
[3] = biological target: T1, truncated Tau protein in fiber form (polymerized R3 peptide); experiment: ELISA on polymers of the R3 sequence of Tau, PBS with 1% BSA, pH 7.5
[4] = biological target: T1, truncated Tau protein in fiber form (polymerized R3 peptide); experiment: ELISA-format assay with 2C5 radiolabeled with iodine 125 on polymers of the R3 sequence of Tau, CPM readout (sheet title: RIA 125I 2C5), PBS with 1% BSA, pH 7.5; PBS wells as control

binding [1]	binding [2]	binding [3]	binding [4]	Binder
binds	binds			2C5 nanobody (VHH) with C-terminal myc and six histidine residues tag (VHH) VHH: QVQLVQSGGGLVQAGGSLRLSCAASGRTFSSDTLAWFRQAPGKEREFVASISPSGGVTYYEDSVKGRFTISRDNSKNTVLLQMNSLTPEDTAVYYCNRDPKYGNTRYWGQGTQVTVSS
		binds	binds	2C5 nanobody radiolabeled with iodine 125 (VHH, radiolabeled with iodine 125 (site not stated)) VHH: QVQLVQSGGGLVQAGGSLRLSCAASGRTFSSDTLAWFRQAPGKEREFVASISPSGGVTYYEDSVKGRFTISRDNSKNTVLLQMNSLTPEDTAVYYCNRDPKYGNTRYWGQGTQVTVSS
